Values of other authors in US20220235255A1, “FLUORINE SUBSTITUTED UNSYMMETRICAL ETHERS, AND COMPOSITIONS, METHODS AND USES INCLUDING SAME” (HONEYWELL INTERNATIONAL INC., priority 2021, published 2022).

Details: GWP of the primary refrigerant; cited from earlier work

Structure (SMILES)	GWP Primary
C=C(F)C(F)(F)F [Compound R1234yf]	<1
CCC [Propane]	3
F/C=C/C(F)(F)F [R1234ze(E)]	<1
